Measurements from patent US20240190966A1.
Results are given in words; binding and its absence hold for the method and conditions named. Some binding calls cover weakened binding; strength is not graded here. For some assays here: Tags and fused reporters may be left off the sequences shown.

By UniProt entry, the sequences of proteins in these tests, tags left out. Where a name states a change or a piece, a line headed by the entry shows the natural chain unless it says otherwise.
UniProt P07766: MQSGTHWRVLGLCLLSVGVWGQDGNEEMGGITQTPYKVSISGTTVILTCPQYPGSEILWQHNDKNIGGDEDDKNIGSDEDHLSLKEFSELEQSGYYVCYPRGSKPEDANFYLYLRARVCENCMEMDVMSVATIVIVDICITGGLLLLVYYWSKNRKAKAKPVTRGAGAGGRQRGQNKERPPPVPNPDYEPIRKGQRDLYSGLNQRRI

Experiments:
human LY6G6D-Fc (human) [1] = biological target: T1, human LY6G6D-Fc (human) (UniProt O95868); assay: BIAcore SPR; LY6G6D-Fc immobilized; 37 C (FIG. 36)
T1 sequence: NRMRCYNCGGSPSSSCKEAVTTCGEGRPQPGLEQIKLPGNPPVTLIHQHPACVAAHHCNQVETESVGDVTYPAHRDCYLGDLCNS

human LY6G6D-Fc (human) [2] = biological target: T1, human LY6G6D-Fc (human); assay: BIAcore SPR, TDB, 37 C
[3] = biological target: T2, cyno extracellular domain (ECD) of CD3 (cynomolgus monkey) (UniProt Q95LI5); assay: BIAcore SPR
T2 sequence: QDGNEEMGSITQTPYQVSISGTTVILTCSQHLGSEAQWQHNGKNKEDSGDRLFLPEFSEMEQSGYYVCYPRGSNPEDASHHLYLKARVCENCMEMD

human LY6G6D-Fc (human) [4] = biological target: T1, human LY6G6D-Fc (human); assay: BIAcore SPR
[5] = biological target: human extracellular domain (ECD) of CD3 (human) (UniProt P07766); assay: BIAcore SPR

Measured: binding

B1: LY6G6D TDB comprising the anti-LY6G6D 20A12.QNTv12 arm (two-cell) and the anti-CD3 38E4.v1 arm (bispecific antibody, V domains shown)
VH 1: EVQLLESGGGLVQPGGSLRLSCAASGFDFVNNAMIWVRQAPGKGLEWVSALSFADNTAYYATWASGRFTISRDSSKTTVYLQMNSLRAEDTAVYYCMRGDLWGPGTLVTVSS
VL 1: DIQMTQSPSTLSASVGDRVTITCQASESITRYLNWYQQKPGKAPKLLIYDASKLPSGVPSRFSGSGSGTEFTLTISSLQPDDFATYYCQSTSFRGRSYQNTFGGGTKVEIK
VH 2: EVQLVQSGAEVKKPGASVKVSCKASGFTFTSYYIHWVRQAPGQGLEWIGWIYPENDNTKYNEKFKDRVTITADTSTSTAYLELSSLRSEDTAVYYCARDGYSRYYFDYWGQGTLVTVSS
VL 2: DIVMTQSPDSLAVSLGERATINCKSSQSLLNSRTRKNYLAWYQQKPGQSPKLLIYWTSTRKSGVPDRFSGSGSGTDFTLTISSLQAEDVAVYYCKQSFILRTFGQGTKVEIK
binds: all assays above
